The list shows only some results of the screen, not a fair sample: it is rich in T/C values a quarter to a half above the control, in often repeated tests (any T/C) and in doses without a T/C. Other doses and runs of a compound stand elsewhere. T/C: endpoint of the treated group in % of that of the vehicle group. Some entries give survivors of the animals treated and no T/C: the source files T/C as zero there, which appears to mark a toxic dose or a test without result, not a measured value. Some survivor counts are full or nearly so, which does not show that the dose was tolerated: the source hardly ever lists a survival T/C far under the control, and the zero likely stands for such cases as well. Counts of survivors are from the toxicity check (mostly the fifth day) where no day follows; animals may have died later. Schedules are NCI's codes, read here as Q, the interval in days (D) or hours (H), X, the number of doses. For survival time, the PubChem record calls one and a half times the control and up active, and a quarter to a half above the control has no call in these data; cut-offs in other NCI protocols can differ. Some entries were tested several times; their values stand side by side, smallest first. Some schedule codes hold Z or #, which are not explained here. Some T/C values are followed by the survivors on the day toxicity was checked, most often the fifth; without a count, all were alive then.
Test system: L1210 leukemia ip in BDF1 mice, survival T/C
Test: NCI In Vivo Anticancer Drug Screen. Data for tumor model L1210 Leukemia (intraperitoneal) in B6D2F1 (BDF1) mice
Conditions: T/C endpoint: mean survival time, higher T/C = longer survival
[1] = dose: 100.0 mg/kg/injection, schedule: Q01DX001 (ip), vehicle: saline
[2] = dose: 200.0 mg/kg/injection, schedule: Q01DX001 (ip), vehicle: saline
[3] = dose: 400.0 mg/kg/injection, schedule: Q01DX001 (ip), vehicle: saline
[4] = dose: 100.0 mg/kg/injection, schedule: Q04DX003 (ip), vehicle: saline with Tween-80
[5] = dose: 400.0 mg/kg/injection, schedule: Q04DX003 (ip), vehicle: saline sonified
[6] = dose: 100.0 mg/kg/injection, schedule: Q04DX003 (ip), vehicle: saline
[7] = dose: 200.0 mg/kg/injection, schedule: Q04DX003 (ip), vehicle: saline
[8] = dose: 400.0 mg/kg/injection, schedule: Q04DX003 (ip), vehicle: saline
[9] = dose: 400.0 mg/kg/injection, schedule: Q04DX002 (ip), vehicle: saline with Tween-80
[10] = dose: 100.0 mg/kg/injection, schedule: Q01DX009 (ip), vehicle: saline
[11] = dose: 200.0 mg/kg/injection, schedule: Q01DX009 (ip), vehicle: saline

`OB(O)CI` was tested, and the survivor count (dose: 40.0 mg/kg/injection, schedule: Q01DX001 (ip), vehicle: saline) was 0 of 4, the survivor count (dose: 50.0 mg/kg/injection, schedule: Q01DX001 (ip), vehicle: saline) was 0 of 4 and the survivor count (dose: 80.0 mg/kg/injection, schedule: Q01DX001 (ip), vehicle: saline) was 0 of 4. For the same compound, the survivor count [1] was 0 of 4, the survivor count [2] was 0 of 4 and the survivor count [3] was 0 of 4.

`CCOc1ccc(Nc2cc([N+](=O)[O-])ccc2C(=O)O)cc1` was tested, and the survivor count [4] was 6 of 6 and the survivor count (dose: 400.0 mg/kg/injection, schedule: Q04DX003 (ip), vehicle: saline with Tween-80) was 2 of 6.

For `CCC(CC)C(=O)O.[Ag]`, the survivor count [2] was 0 of 4 and the survivor count [3] was 0 of 4.

With `COc1c2c(cc3c1C1(O)Cc4ccc5c(c4C[N+]1(C)CC3)OCO5)OCO2` (configuration not stated) the survivor count [3] was 2 of 4.

For `OC(OC/C(I)=C(/I)COC(O)C(Cl)(Cl)Cl)C(Cl)(Cl)Cl` (configuration not stated), the survivor count (dose: 400.0 mg/kg/injection, schedule: Q01DX009 (ip), vehicle: other) was 0 of 6.

For `NC(=O)C1=Cc2cc(Cl)ccc2OC1`, the survivor count (dose: 400.0 mg/kg/injection, schedule: Q01DX009 (ip), vehicle: Klucel (hydroxypropylcellulose) (HPC)) was 6 of 6.

`COc1ccc(C2(C(=O)O)CCCC2)cc1` was tested, and the survivor count (dose: 400.0 mg/kg/injection, schedule: Q01DX009 (ip), vehicle: saline with Tween-80) was 2 of 6.

`O=S(=O)(O)NC1CCCCC1` was tested, and the survivor count (dose: 200.0 mg/kg/injection, schedule: Q01DX009 (ip), vehicle: acetone) was 2 of 6.

`O=C(Nc1ccc(NC(=O)Nc2cccc(C3=NCCN3)c2)cc1)Nc1cccc(C2=NCCN2)c1` was tested, and the T/C (dose: 30.0 mg/kg/injection, schedule: Q01DX Z (ip), vehicle: carboxymethylcellulose (CMC)) was 145 % of control, the T/C (dose: 60.0 mg/kg/injection, schedule: Q01DX006 (iv), vehicle: saline) was 137 % of control [4 of 6 alive] and the T/C (dose: 60.0 mg/kg/injection, schedule: Q01DX Z (ip), vehicle: carboxymethylcellulose (CMC)) was 125 % of control. The T/C (dose: 74.0 mg/kg/injection, schedule: Q01DX Z (ip), vehicle: carboxymethylcellulose (CMC)) was 142 % of control, the T/C (dose: 110.0 mg/kg/injection, schedule: Q07DX Z (ip), vehicle: saline) was 141 % of control and the T/C (dose: 120.0 mg/kg/injection, schedule: Q01DX Z (ip), vehicle: carboxymethylcellulose (CMC)) was 132 % of control. The T/C (dose: 240.0 mg/kg/injection, schedule: Q01DX Z (im), vehicle: saline) was 147 % of control, the T/C (dose: 240.0 mg/kg/injection, schedule: Q01DX Z (ip), vehicle: carboxymethylcellulose (CMC)) was 130 % of control and the T/C (dose: 240.0 mg/kg/injection, schedule: Q01DX Z (sc), vehicle: carboxymethylcellulose (CMC)) was 132 % of control. For the same compound, the T/C (dose: 480.0 mg/kg/injection, schedule: Q01DX Z (sc), vehicle: carboxymethylcellulose (CMC)) was 130 % of control.

For `O=NN(CCCl)C(=O)Nc1cccc(Cl)c1`, the T/C (dose: 9.12 mg/kg/injection, schedule: Q01DX001 (ip), vehicle: carboxymethylcellulose (CMC)) was 132 % of control, the T/C (dose: 18.25 mg/kg/injection, schedule: Q01DX001 (ip), vehicle: carboxymethylcellulose (CMC)) was 140 % of control and the T/C (dose: 37.5 mg/kg/injection, schedule: Q01DX001 (ip), vehicle: carboxymethylcellulose (CMC)) was 138 % of control. For the same compound, the T/C (dose: 50.0 mg/kg/injection, schedule: Q01DX001 (ip), vehicle: carboxymethylcellulose (CMC)) was 144 % of control, the T/C (dose: 75.0 mg/kg/injection, schedule: Q01DX001 (ip), vehicle: carboxymethylcellulose (CMC)) was 148 % of control and the survivor count (dose: 200.0 mg/kg/injection, schedule: Q01DX001 (ip), vehicle: carboxymethylcellulose (CMC)) was 5 of 6. The survivor count (dose: 300.0 mg/kg/injection, schedule: Q01DX001 (ip), vehicle: carboxymethylcellulose (CMC)) was 5 of 6, the survivor count (dose: 400.0 mg/kg/injection, schedule: Q01DX001 (ip), vehicle: carboxymethylcellulose (CMC)) was 2 of 6 and the survivor count (dose: 500.0 mg/kg/injection, schedule: Q01DX001 (ip), vehicle: carboxymethylcellulose (CMC)) was 0 of 6. For the same compound, the survivor count (dose: 600.0 mg/kg/injection, schedule: Q01DX001 (ip), vehicle: carboxymethylcellulose (CMC)) was 0 of 6, the survivor count (dose: 800.0 mg/kg/injection, schedule: Q01DX001 (ip), vehicle: carboxymethylcellulose (CMC)) was 0 of 6 and the survivor count (dose: 1000.0 mg/kg/injection, schedule: Q01DX001 (ip), vehicle: carboxymethylcellulose (CMC)) was 0 of 6.

In the case of `NOCc1c(F)c(F)c(F)c(F)c1F`, the survivor count [5] is reported as 4 of 6.

In the case of `CN(C)c1ccc(-c2cc[n+](C)cc2)cc1`, the survivor count (dose: 12.5 mg/kg/injection, schedule: Q04DX003 (ip), vehicle: saline) is reported as 0 of 6, the survivor count (dose: 25.0 mg/kg/injection, schedule: Q04DX003 (ip), vehicle: saline) is reported as 0 of 6 and the survivor count (dose: 50.0 mg/kg/injection, schedule: Q04DX003 (ip), vehicle: saline) is reported as 0 of 6. The survivor count [6] was 0 of 6, the survivor count [7] was 0 of 6 and the survivor count [8] was 0 of 6.

For `CN(C)CCCCc1cn(-c2ccccc2)c2ccccc12`, the survivor count (dose: 60.0 mg/kg/injection, schedule: Q01DX015 (ip), vehicle: saline) was 0 of 6, the survivor count [6] was 2 of 6 and the survivor count (dose: 120.0 mg/kg/injection, schedule: Q01DX015 (ip), vehicle: saline) was 0 of 6. The survivor count (dose: 240.0 mg/kg/injection, schedule: Q01DX015 (ip), vehicle: saline) was 0 of 6.

In the case of `CCCCCCCCC(C)C`, the survivor count [9] is reported as 2 of 3.

In the case of `O=C1C2C3CCC(O3)C2C(=O)N1CC#CCCl` (configuration not stated), the survivor count (dose: 25.0 mg/kg/injection, schedule: Q04DX002 (ip), vehicle: saline with Tween-80) is reported as 0 of 3, the survivor count (dose: 100.0 mg/kg/injection, schedule: Q04DX002 (ip), vehicle: saline with Tween-80) is reported as 0 of 3 and the survivor count (dose: 200.0 mg/kg/injection, schedule: Q04DX002 (ip), vehicle: saline with Tween-80) is reported as 0 of 3. For the same compound, the survivor count [9] was 0 of 3.

In the case of `CNCCCN1c2ccccc2CCc2ccccc21`, the survivor count [1] is reported as 1 of 6, the survivor count [10] is reported as 0 of 6 and the survivor count [6] is reported as 2 of 4. For the same compound, the survivor count [2] was 0 of 6, the survivor count [11] was 0 of 6 and the survivor count [7] was 0 of 4. The survivor count [3] was 0 of 6, the survivor count (dose: 400.0 mg/kg/injection, schedule: Q01DX009 (ip), vehicle: saline) was 0 of 6 and the survivor count [8] was 0 of 4.

With `CCOC(=O)Oc1c(OC)cc(C(=O)O[C@@H]2C[C@@H]3CN4CCc5c([nH]c6cc(OC)ccc56)[C@H]4C[C@@H]3[C@H](C(=O)OC)[C@H]2OC)cc1OC` the survivor count (dose: 400.0 mg/kg/injection, schedule: Q04DX003 (ip), vehicle: Klucel (hydroxypropylcellulose) (HPC)) was 0 of 4.

With `N=C(N)SCCSC(=N)N` the survivor count (dose: 200.0 mg/kg/injection, schedule: Q04DX003 (ip), vehicle: saline sonified) was 2 of 6 and the survivor count [5] was 0 of 6.

With `O=C(NCCCl)NC1c2ccccc2-c2ccccc21` the survivor count (dose: 200.0 mg/kg/injection, schedule: Q04DX003 (ip), vehicle: Klucel (hydroxypropylcellulose) (HPC)) was 6 of 6.

With `CC(Br)CN1CCOCC1` (configuration not stated) the survivor count [2] was 0 of 6 and the survivor count [3] was 0 of 6.

For `C=CCN(C)/N=N/c1[nH]ncc1C(N)=O`, the T/C (dose: 22.0 mg/kg/injection, schedule: Q01DX009 (ip), vehicle: saline with Tween-80) was 142 % of control, the T/C (dose: 33.0 mg/kg/injection, schedule: Q01DX009 (ip), vehicle: saline with Tween-80) was 132 % of control and the T/C [4] was 131 and 134 % of control. For the same compound, the T/C (dose: 150.0 mg/kg/injection, schedule: Q04DX003 (ip), vehicle: saline with Tween-80) was 134 % of control, the T/C (dose: 200.0 mg/kg/injection, schedule: Q01DX001 (ip), vehicle: saline with Tween-80) was 135 % of control and the T/C (dose: 200.0 mg/kg/injection, schedule: Q04DX003 (ip), vehicle: saline with Tween-80) was 133 % of control [5 of 6 alive]. The survivor count (dose: 400.0 mg/kg/injection, schedule: Q01DX001 (ip), vehicle: saline with Tween-80) was 3 of 6.

In the case of `CC12OC(c3ccccc3)(C3=C1C1CCC(C1)C3(C)C)c1ccccc12` (configuration not stated), the survivor count [10] is reported as 6 of 6 and the survivor count [11] is reported as 6 of 6.

Source: PubChem BioAssay AID248 (DTP/NCI, 2004)
